Consider one substance from article PMC10051276.

The chains behind the UniProt entries cited, without tags or fusion partners. Where a name states a change or a piece, a line headed by the entry shows the natural chain unless it says otherwise.
UniProt Q584U7: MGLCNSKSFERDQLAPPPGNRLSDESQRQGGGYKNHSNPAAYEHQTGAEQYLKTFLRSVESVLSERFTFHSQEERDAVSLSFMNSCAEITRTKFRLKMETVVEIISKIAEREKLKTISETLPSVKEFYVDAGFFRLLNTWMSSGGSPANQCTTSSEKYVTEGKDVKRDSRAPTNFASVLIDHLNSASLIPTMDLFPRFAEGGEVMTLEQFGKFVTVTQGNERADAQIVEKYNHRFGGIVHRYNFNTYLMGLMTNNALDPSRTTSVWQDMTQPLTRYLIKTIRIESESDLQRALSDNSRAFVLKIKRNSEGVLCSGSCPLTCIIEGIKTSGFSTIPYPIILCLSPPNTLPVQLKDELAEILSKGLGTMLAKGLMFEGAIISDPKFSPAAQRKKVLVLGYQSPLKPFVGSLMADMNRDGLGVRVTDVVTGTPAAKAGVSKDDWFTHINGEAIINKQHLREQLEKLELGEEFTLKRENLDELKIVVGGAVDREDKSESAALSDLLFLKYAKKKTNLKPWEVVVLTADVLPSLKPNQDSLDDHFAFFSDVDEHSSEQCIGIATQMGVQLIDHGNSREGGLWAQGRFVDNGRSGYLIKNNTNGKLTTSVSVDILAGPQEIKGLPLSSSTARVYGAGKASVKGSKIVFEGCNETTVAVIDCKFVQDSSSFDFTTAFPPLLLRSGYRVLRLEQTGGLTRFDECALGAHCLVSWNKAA

This assay has as its target TbPI-PLC1 endogenously tagged with hemagglutinin (HA) (T. brucei) (UniProt Q385H1). Nature of the assay: co-IP; T. brucei PCF line with TbPI-PLC1 endogenously tagged with HA; TbPI-PLC-like untagged; most TbPI-PLC-like in the flow through; found in five independent experiments.

These are yes or no findings as the source states them, for the method shown. Binding seen in cells or lysates may run through a third protein. A result given as binding can be weak or reduced; the word gives no strength.

Consider TbPI-PLC-like (from UniProt Q584U7), for which the binding entry is listed as “binds weakly”.
